Residue numbers refer to the chain shown, from its start. These are yes or no findings as the source states them, for the method shown. For some of these results: Binding seen in cells or lysates may run through a third protein. Some results given as binding are weak or reduced against the parent protein; the word gives no strength. Where a sequence is shown, tags or fusion partners need not be part of it.
Columns and labels:
[1] = target: T1, FLAG-tagged wild type MASL1 (malignant fibrous histiocytoma amplified sequences with leucine-rich tandem repeats 1) (human) (UniProt Q9Y4C4); assay: co-IP; FLAG-tagged MASL1 immunoprecipitated from HEK293T lysates, immunoblot for HSP60
T1 sequence: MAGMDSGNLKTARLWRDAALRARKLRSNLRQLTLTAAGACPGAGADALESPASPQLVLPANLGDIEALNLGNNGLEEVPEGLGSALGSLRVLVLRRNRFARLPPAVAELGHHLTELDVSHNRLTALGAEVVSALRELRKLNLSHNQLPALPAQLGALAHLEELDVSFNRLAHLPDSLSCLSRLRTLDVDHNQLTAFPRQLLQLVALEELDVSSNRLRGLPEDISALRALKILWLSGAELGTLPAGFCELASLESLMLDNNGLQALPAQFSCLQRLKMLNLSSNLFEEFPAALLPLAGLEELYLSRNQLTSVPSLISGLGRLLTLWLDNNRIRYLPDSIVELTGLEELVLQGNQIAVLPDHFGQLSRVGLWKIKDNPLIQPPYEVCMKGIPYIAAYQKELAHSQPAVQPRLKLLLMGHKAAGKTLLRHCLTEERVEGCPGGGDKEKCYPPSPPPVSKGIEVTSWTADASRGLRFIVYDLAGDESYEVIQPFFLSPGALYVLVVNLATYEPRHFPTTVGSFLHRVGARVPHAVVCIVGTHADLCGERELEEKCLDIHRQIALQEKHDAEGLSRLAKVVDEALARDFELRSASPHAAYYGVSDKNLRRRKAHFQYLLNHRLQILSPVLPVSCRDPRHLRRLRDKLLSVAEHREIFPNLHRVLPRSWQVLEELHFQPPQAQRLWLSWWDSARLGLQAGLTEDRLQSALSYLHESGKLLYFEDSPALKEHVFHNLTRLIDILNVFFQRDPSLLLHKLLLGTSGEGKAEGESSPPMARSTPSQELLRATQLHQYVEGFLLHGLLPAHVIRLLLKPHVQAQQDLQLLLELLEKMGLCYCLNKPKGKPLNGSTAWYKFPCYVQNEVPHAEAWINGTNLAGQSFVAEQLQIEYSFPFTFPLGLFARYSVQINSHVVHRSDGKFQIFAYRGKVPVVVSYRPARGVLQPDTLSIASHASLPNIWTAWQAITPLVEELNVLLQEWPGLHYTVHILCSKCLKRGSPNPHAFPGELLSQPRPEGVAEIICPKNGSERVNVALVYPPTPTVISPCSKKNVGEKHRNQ

Amino acid sequences for entries named in this document (tags omitted). Residues count along the entry.
UniProt P10809, residues 27-573: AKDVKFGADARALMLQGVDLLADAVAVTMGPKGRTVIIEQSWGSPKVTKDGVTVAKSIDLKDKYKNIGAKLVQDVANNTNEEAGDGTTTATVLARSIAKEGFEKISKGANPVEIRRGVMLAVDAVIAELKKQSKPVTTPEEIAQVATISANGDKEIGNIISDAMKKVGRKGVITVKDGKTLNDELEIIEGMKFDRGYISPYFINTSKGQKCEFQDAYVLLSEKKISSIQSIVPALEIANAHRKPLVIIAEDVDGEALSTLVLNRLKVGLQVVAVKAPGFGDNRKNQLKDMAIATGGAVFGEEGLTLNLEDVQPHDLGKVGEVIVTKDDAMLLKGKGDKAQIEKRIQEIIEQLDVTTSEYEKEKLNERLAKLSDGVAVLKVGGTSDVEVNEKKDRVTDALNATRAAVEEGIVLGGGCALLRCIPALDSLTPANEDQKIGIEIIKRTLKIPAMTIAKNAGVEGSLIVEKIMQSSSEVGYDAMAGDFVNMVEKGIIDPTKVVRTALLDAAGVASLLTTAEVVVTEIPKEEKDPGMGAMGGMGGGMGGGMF

[2] = target: T2, FLAG-tagged K422A MASL1 (human) (UniProt Q9Y4C4); assay: as above
T2 sequence: T1 sequence with K422A

[3] = target: T3, HA-tagged K422A MASL1 (human) (UniProt Q9Y4C4); assay: SEC; lysates of MASL1 transfected HEK293T cells on Superose 6 10/300; 20 mM Tris/HCl pH 7.5, 150 mM NaCl, 0.07% Tween-20; fractions probed by dot blot for HA and HSP60
T3 sequence: T1 sequence with K422A

[4] = target: T4, HA-tagged wild type MASL1 (human) (UniProt Q9Y4C4); assay: as above
T4 sequence: T1 sequence

Measured: binding

Heat shock protein 60 (HSP60) (from UniProt P10809 27-573)
binds: all assays above

Source: PMC3995007, “GTP binding controls complex formation by the human ROCO protein MASL1” (The Febs Journal, 2013)
